Test results reported in patent US9260481B2, “Peptide derivatives as antibiotics” (priority 2011, dated 2016).
Values after ≈ are worked out from the molar mass of the structure shown.

How the values were obtained:
[1] = system: Bacillus subtilis; assay: microbe, parasite or virus in culture; conditions: DSM347
Method: (§1) The minimal inhibitory concentrations (MIC) were determined according to the Clinical and Laboratory Standards Institute (CLSI) conditions guidelines detailed in Table 7. Assays were performed in triplicate.
(§2) Preparation of Inocula. Five to 10 well-isolated colonies were picked and resuspended in 3 ml sterile saline. The inoculum was re-suspended by vigorous shaking on a vortex mixer for 15 s. Turbidity was adjusted to McFarland standard 0.5 ([…]). The inoculum was further diluted in the appropriate media (Table 7) to give a final inoculum in each well of ˜2-8×10^5 CFU/ml.
(§3) Addition of Test Article. Stock solutions of Odilomycin A or comparator were diluted in the appropriate media to give a maximum starting concentration of 50 μg/mL in the assay. 50 μL of medium was dispensed into each well in columns two to 12 of a 96 well plate. 100 μL of the appropriate test compound solution (100 μg/mL) was dispensed into each well in column one. In the case of M. catarrhalis, M. haemolytica and P. multocida these values were doubled (a final assay volume of 200 μL was used). […] Columns 11 and 12 served as positive (no drug or test article, inoculum added), and negative (no drug, test article, or inoculum added) growth controls respectively.
(§4) Addition of Bacterial Strains. […]

[2] = system: Staphylococcus epidermidis; assay: microbe, parasite or virus in culture; conditions: ATCC12228
Method: as §1, §2, §3, §4

Question: How did the MIC [1] turn out when CN[C@H](CC(C)C)C(=O)N[C@H]1C(=O)N[C@@H](CC(N)=O)C(=O)N[C@H]2C(=O)N[C@H]3C(=O)N[C@H](C(=O)N[C@H](C(=O)O)c4cc(O)cc(O)c4-c4cc3ccc4O)[C@H](O)c3ccc(c(Cl)c3)Oc3cc2cc(c3O[C@@H]2O[C@H](CO)[C@@H](O)[C@H](O)[C@H]2O[C@H]2C[C@](C)(N)[C@H](O)[C@H](C)O2)Oc2ccc(cc2Cl)[C@H]1O [Vancomycin, vancomycin] was run?
Answer: 0.2 µg/mL (≈ 0.138 µM)

Question: And the MIC [2]?
Answer: 0.2 µg/mL (≈ 0.138 µM)
